This passage reports binding results from article PMC9959367.

Amino acid sequences for entries named in this document (tags omitted). A change or cut given only in a name is not applied to a line headed by its entry. Chains listed by the source or under a name are the forms on record and can include a tag or linker.
UniProt P26678: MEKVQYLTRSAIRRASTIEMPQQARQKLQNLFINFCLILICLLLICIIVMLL
SERCA2a, endogenous in human heart (human (endogenous in human heart)) (P16615-2, form named): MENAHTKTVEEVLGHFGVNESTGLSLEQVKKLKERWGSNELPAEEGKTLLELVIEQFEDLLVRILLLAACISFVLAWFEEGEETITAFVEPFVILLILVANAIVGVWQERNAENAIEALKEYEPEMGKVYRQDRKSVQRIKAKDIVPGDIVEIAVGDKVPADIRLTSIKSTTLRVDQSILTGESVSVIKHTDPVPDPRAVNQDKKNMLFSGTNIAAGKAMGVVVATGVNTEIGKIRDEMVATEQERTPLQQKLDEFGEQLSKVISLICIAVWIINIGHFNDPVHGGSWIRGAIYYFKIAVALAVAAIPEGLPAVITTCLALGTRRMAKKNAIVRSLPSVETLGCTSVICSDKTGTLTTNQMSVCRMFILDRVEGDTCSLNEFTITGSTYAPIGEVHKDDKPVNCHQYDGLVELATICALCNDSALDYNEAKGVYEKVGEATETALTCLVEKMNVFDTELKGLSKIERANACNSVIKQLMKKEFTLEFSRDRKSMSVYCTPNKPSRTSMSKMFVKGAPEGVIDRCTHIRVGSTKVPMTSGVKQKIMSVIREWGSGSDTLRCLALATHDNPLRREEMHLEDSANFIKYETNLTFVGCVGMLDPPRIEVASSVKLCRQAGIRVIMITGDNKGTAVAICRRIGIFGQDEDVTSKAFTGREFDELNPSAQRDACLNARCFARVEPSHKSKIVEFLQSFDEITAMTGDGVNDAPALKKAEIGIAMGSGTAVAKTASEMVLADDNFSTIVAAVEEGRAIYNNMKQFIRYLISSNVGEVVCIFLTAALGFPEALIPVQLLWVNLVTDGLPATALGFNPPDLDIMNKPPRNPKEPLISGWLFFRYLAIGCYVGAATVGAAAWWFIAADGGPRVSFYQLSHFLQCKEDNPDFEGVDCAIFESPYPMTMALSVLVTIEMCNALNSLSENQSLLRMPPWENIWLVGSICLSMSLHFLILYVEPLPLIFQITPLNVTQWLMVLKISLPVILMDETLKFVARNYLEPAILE
UniProt Q09472: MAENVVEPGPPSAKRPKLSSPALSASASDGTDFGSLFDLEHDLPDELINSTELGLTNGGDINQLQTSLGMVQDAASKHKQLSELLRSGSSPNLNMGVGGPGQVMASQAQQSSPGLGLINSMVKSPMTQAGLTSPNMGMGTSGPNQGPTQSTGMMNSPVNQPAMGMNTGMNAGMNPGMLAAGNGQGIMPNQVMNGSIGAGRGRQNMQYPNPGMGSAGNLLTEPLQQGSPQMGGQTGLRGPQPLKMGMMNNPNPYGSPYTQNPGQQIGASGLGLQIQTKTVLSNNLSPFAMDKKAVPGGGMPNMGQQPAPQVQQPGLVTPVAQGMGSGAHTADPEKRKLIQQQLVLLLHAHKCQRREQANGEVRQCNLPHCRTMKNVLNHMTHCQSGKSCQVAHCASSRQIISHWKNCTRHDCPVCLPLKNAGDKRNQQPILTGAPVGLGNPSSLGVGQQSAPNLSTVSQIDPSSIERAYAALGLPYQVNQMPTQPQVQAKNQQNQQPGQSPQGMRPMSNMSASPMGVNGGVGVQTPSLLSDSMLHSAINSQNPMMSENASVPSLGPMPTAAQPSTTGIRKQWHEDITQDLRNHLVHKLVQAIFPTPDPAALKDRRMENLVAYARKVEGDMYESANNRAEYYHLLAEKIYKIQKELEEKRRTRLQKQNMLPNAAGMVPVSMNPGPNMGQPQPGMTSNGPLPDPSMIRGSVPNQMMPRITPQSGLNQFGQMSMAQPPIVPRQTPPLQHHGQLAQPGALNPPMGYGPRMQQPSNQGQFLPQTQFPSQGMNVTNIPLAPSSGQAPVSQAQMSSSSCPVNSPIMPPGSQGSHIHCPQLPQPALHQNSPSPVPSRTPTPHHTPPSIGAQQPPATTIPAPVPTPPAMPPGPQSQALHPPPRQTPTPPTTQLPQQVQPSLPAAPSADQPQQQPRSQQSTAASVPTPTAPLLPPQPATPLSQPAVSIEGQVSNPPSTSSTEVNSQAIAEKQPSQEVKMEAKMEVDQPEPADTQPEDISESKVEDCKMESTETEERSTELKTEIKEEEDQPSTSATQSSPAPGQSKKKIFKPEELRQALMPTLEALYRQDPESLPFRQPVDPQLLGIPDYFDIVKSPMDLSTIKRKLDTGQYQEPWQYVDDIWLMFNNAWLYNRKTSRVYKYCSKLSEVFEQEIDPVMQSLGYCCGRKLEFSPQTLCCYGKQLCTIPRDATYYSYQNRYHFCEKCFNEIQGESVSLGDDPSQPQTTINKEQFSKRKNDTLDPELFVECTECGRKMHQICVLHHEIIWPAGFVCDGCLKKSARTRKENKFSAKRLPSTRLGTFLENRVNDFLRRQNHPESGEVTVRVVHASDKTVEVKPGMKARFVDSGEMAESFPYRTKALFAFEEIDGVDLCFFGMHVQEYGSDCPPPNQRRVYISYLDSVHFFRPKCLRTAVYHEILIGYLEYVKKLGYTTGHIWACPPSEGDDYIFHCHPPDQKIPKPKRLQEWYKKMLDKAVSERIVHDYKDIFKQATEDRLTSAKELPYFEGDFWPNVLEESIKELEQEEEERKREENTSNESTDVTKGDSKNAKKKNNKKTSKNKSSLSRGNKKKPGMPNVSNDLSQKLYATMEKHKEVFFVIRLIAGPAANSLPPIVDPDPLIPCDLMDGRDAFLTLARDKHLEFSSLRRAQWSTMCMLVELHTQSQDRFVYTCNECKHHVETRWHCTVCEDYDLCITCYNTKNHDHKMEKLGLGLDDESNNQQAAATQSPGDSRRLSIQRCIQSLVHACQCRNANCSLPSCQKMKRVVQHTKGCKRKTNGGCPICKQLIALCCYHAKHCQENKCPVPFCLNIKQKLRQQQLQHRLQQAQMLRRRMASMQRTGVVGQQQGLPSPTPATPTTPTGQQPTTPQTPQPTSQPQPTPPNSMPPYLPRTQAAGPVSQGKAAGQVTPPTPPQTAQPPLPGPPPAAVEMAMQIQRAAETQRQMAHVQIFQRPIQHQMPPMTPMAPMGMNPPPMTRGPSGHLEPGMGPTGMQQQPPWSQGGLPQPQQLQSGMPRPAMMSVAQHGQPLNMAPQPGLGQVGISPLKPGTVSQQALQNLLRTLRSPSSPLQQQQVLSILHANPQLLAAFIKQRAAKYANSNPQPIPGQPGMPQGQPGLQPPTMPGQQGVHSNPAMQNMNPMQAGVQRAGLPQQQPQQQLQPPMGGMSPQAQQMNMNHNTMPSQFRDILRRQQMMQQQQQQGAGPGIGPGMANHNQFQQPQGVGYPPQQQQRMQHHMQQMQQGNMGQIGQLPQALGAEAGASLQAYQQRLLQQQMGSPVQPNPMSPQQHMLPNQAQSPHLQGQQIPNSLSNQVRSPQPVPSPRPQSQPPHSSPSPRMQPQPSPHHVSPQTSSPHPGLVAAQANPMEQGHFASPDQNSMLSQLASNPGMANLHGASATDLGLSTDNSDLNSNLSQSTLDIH

Results are given in words; binding and its absence hold for the method and conditions named. In cells and extracts the contact can be indirect. Some entries that bind do so weakly or less than the wild type.

The target in one assay is phospholamban (PLN) (UniProt P26678). Briefly: co-IP; IP experiments in overexpression systems, told in the discussion only, data not shown; which partner was precipitated is not told.
In assay [1] the target is cardiac sarco-endoplasmic reticulum Ca2+ ATPase (SERCA2a), wild type, expressed in HEK293 cells (UniProt P16615). Description: co-IP; HEK293 cells transfected with SERCA2a alone or with different dosages of p300 plasmid; sodium butyrate treatment; lysates incubated with anti-Flag agarose beads, blotted with anti-p300 antibody.
The target is the same in assay [2]. Briefly: co-IP; HEK293 cells transfected with SERCA2a alone or with an acetyltransferase (p300, CBP, PCAF, GCN5); lysates in RIPA buffer immunoprecipitated with anti-SERCA2a antibody, blotted with anti-p300 antibody.
Assay [3] concerns the target SERCA2a, endogenous in human heart (human (endogenous in human heart)) (UniProt P16615). Description: co-IP; endogenous proteins; SERCA2a immunoprecipitated from normal and heart failure human patient hearts, RIPA buffer.

For “cardiac sarco-endoplasmic reticulum Ca2+ ATPase (SERCA2a), wild type, expressed in HEK293 cells (from UniProt P16615-2 1-997)”, in the assay with phospholamban (PLN), the binding result is listed as “binds”.

Consider “p300 acetyltransferase, expressed in HEK293 cells (from UniProt Q09472 1-2414) (enzyme)”, for which the binding result in assay [1] and in assay [2] was “binds” in each case.

For “p300, endogenous in human heart (from UniProt Q09472 1-2414) (enzyme)”, the binding entry in assay [3] is given as “binds”.
